Data: PMC7447769

Target: T1, green fluorescent protein (GFP)/Smad Interacting Protein 1 (SIP1) (UniProt O60315)
T1 sequence: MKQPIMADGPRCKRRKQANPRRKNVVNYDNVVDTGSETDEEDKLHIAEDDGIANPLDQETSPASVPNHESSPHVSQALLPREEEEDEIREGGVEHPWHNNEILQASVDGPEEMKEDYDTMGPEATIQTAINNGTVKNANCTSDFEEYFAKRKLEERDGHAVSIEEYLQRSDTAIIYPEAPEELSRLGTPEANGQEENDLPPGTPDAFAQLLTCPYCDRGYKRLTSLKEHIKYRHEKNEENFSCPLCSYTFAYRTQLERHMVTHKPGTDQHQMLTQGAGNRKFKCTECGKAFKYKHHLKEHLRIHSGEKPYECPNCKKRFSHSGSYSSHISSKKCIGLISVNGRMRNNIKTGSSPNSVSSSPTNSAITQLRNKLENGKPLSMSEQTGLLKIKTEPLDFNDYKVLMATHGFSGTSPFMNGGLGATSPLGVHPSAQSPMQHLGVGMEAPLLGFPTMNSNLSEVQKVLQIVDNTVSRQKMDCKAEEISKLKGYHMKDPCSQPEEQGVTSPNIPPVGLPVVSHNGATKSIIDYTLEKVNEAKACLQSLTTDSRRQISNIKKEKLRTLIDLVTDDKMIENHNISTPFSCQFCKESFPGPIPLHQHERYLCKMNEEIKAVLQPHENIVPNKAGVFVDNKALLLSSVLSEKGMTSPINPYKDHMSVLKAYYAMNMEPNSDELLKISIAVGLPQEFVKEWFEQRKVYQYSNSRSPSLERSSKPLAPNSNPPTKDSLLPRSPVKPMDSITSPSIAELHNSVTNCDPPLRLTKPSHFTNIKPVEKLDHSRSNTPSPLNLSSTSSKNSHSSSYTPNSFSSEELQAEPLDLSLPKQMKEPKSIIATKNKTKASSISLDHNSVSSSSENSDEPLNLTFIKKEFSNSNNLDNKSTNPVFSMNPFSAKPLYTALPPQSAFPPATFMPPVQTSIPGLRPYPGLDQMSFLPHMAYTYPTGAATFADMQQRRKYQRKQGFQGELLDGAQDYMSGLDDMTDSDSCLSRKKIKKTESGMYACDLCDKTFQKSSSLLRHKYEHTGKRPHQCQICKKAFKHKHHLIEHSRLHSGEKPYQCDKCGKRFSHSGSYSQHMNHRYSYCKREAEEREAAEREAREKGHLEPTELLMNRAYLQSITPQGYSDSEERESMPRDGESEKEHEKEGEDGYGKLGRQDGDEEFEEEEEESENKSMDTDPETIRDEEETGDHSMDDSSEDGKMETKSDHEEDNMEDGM
Test: co-IP; 293T cells co-transfected with Rluc/TCF7L2E2 (or Rluc alone) and GFP/SIP1 (or GFP alone); immunoprecipitation with anti-SIP1 or IgG, Renilla luciferase activity on 90% of the immunocomplexes, normalised to input, IgG subtracted

“Rluc/TCF7L2E2 (Renilla luciferase in fusion with TCF7L2E2) (mouse)” was tested, and the binding was “binds”.

Results are given in words; binding and its absence hold for the method and conditions named. In cells and extracts the contact can be indirect. Binding calls can cover weak binding; strength is not graded here. Where a sequence is shown, tags or fusion partners need not be part of it.
